The results in this text go back to patent US20210322524A1.

Protein sequences, listed by entry. Tags and fused reporters are not part of them.
UniProt Q8K1M6: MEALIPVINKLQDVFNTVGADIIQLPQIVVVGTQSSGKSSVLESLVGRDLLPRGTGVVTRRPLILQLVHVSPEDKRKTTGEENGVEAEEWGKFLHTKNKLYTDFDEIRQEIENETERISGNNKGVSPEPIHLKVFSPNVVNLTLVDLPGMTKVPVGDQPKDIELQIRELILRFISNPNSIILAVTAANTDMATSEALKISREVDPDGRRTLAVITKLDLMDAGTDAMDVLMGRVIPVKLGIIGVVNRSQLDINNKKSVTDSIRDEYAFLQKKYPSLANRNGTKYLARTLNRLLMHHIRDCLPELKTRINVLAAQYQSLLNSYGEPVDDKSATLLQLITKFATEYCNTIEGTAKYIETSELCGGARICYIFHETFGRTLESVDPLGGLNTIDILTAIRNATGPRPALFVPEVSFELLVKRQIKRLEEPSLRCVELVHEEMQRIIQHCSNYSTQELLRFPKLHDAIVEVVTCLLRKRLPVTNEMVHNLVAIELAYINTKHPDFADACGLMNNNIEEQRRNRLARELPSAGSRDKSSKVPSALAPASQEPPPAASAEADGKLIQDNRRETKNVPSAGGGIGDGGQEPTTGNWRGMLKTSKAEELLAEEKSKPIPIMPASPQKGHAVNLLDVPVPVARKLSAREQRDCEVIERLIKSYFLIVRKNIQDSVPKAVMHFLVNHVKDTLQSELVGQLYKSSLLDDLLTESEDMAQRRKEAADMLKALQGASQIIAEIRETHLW

No constants are given. Whether binding was seen depends on the method and setting. For some of these results: In cells and extracts the contact can be indirect. Some binding calls cover weakened binding; strength is not graded here. For some of these results: Tags and fused reporters may be left off the sequences shown.

In assay [1] the target is T1, Drp1 (endogenous, human cells and tissue) (human), O00429. The assay is described as follows: IP analysis with truncated mutants. Conditions: remark: other sources report otherwise.
Assay [2] has as its target T1, Drp1 (endogenous, human cells and …). The assay is described as follows: IP of total lysates of transfected HEK293 cells. Conditions: remark: other sources report otherwise.
For assay [3], the target named is Drp1 (endogenous, mouse striatal cells and mouse striatum) (mouse) (UniProt Q8K1M6). The assay is described as follows: immunoprecipitation of striatal lysates.
The target is the same in assay [4]. The experiment in a line: co-IP, mouse cells and striatal extracts (FIG. 1C-E).

B1: ATAD3A-Flag protein (human ATAD3A wildtype, Flag-tagged), Q9NVI7 1-586 (protein, UniProt Q9NVI7 1-586, looked up, not shown: small tags and cut ends)
chain: MSWLFGINKGPKGEGAGPPPPLPPAQPGAEGGGDRGLGDRPAPKDKWSNFDPTGLERAAKAARELEHSRYAKDALNLAQMQEQTLQLEQQSKLKEYEAAVEQLKSEQIRAQAEERRKTLSEETRQHQARAQYQDKLARQRYEDQLKQQQLLNEENLRKQEESVQKQEAMRRATVEREMELRHKNEMLRVEAEARARAKAERENADIIREQIRLKAAEHRQTVLESIRTAGTLFGEGFRAFVTDWDKVTATVAGLTLLAVGVYSAKNATLVAGRFIEARLGKPSLVRETSRITVLEALRHPIQVSRRLLSRPQDALEGVVLSPSLEARVRDIAIATRNTKKNRSLYRNILMYGPPGTGKTLFAKKLALHSGMDYAIMTGGDVAPMGREGVTAMHKLFDWANTSRRGLLLFVDEADAFLRKRATEKISEDLRATLNAFLYRTGQHSNKFMLVLASNQPEQFDWAINDRINEMVHFDLPGQEERERLVRMYFDKYVLKPATEGKQRLKLAQFDYGRKCSEVARLTEGMSGREIAQLAVSWQATAYASEDGVLTEAMMDTRVQDAVQQHQQKMCWLKAEGPGRGDEPSPS
Take B1: the binding entry in assay [1] and in assay [2] was “binds” each time.

B2: ATAD3A (endogenous, mouse cells and mouse striatum) (protein, UniProt Q925I1 2-591, looked up)
chain: SWLFGIKGPKGEGTGPPLPLPPAQPGAEGGGDRGAGDRPSPKDKWSNFDPTGLERAAKAARELEHSRHAKEALSLAQMQEQTLQLEQQSKLKEYEAAVEQLKSEQIRVQAEERRKTLTEETRQHQARAQYQDKLARQRYEDQLKQQQLLNEENLRKQEESVQKQEAIRRATVEREMELRHKNEMLRVEAEARARAKADRENADIIREQIRLKAAEHRQTILESIRTAGTLLGEGFRAFVTDWDKVTATVAGLTLLAVGVYSAKNATSVAGRYIEARLGKPSLVRETSRISVLEALRHPIQVSRRLVSRPQDALEGVILSPSLEARVRDIAIATRNTKKNKSLYRNVLMYGPPGTGKTLFAKKLALHSGMDYAIMTGGDVAPMGREGVTAMHKVFDWASTSRRGLLLFVDEADAFLRKRATEKISEDLRATLNAFLHRTGQHSSKFMLVLASNQPEQFDWAINDRIDEMVCFALPQREERERLVRMYFDKYVLKPATEGKQRLKVAQFDYGKKCSEVAQLTEGMSGREIAQLAVAWQAMAYSSEDGVLTEAMMDARVQDAVQQHQQKMQWLKVERPDSQTNKPPHPSLLSC
With B2, the binding entry in assay [3] and in assay [4] was “binds” each time.
